Cell number after 72 h of treatment

Source: doi:10.1371/journal.pone.0140310, primary screening data, rounded.

Drug key:
bortezomib (0.001 µM): CC(C)C[C@H](NC(=O)[C@H](Cc1ccccc1)NC(=O)c1cnccn1)B(O)O
selumetinib (0.015 µM): Cn1cnc2c(F)c(Nc3ccc(Br)cc3Cl)c(C(=O)NOCCO)cc21
palbociclib (0.04 µM): CC(=O)c1c(C)c2cnc(Nc3ccc(N4CCNCC4)cn3)nc2n(C2CCCC2)c1=O
nilutamide (1 µM): CC1(C)NC(=O)N(c2ccc([N+](=O)[O-])c(C(F)(F)F)c2)C1=O
BI-D1870 (0.2 µM): CC(C)CCN1c2nc(Nc3cc(F)c(O)c(F)c3)ncc2N(C)C(=O)C1C (centres undefined)
everolimus (0.02 µM): CO[C@H]1C[C@@H]2CC[C@@H](C)[C@@](O)(O2)C(=O)C(=O)N2CCCC[C@H]2C(=O)O[C@H]([C@H](C)C[C@@H]2CC[C@@H](OCCO)[C@H](OC)C2)CC(=O)[C@H](C)/C=C(\C)[C@@H](O)[C@@H](OC)C(=O)[C@H](C)C[C@H](C)/C=C/C=C/C=C/1C
OSU-03012 (1 µM): NCC(=O)Nc1ccc(-n2nc(C(F)(F)F)cc2-c2ccc3c(ccc4ccccc43)c2)cc1
AS-252424 (1 µM): O=C1NC(=O)/C(=C/c2ccc(-c3ccc(F)cc3O)o2)S1
T0901317 (1.4 µM): O=S(=O)(c1ccccc1)N(CC(F)(F)F)c1ccc(C(O)(C(F)(F)F)C(F)(F)F)cc1
SU6656 (0.4 µM): CN(C)S(=O)(=O)c1ccc2c(c1)/C(=C/c1cc3c([nH]1)CCCC3)C(=O)N2

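Human melanoma cells were exposed to a pair of drugs for 72 h in 1,536-well plates and read by automated microscopy after fixing and staining. Each value is the count of nuclei relative to DMSO-treated wells, in %, so that 100 equals the control. Concentrations were fixed for each drug; these are the lower of two levels, a fifth of the higher. These are primary screening values without error estimates.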
This is part of the screen, not chosen by result.
An entry leaves out what has no value listed here.
A dash means that no value is listed here.

| # | Drugs | 501mel | IST-MEL1 | C32 | A101D | MEL-HO | COLO 792 | A375 | COLO 800 | G-361 | LB2518-MEL | A2058 | COLO 829 | IPC-298 | LOX IMVI |
|---|---|---|---|---|---|---|---|---|---|---|---|---|---|---|---|
| 1 | nilutamide + palbociclib | - | 78.0 | 89.3 | 68.8 | 63.6 | 65.3 | 55.9 | 88.0 | 67.2 | 74.6 | 92.9 | 72.3 | 82.2 | 82.0 |
| 2 | palbociclib + everolimus | - | 72.4 | 95.3 | 74.3 | 66.0 | 45.6 | 29.7 | 78.3 | 55.3 | 71.8 | 73.5 | 69.8 | 76.1 | 89.8 |
| 3 | selumetinib + AS-252424 | - | 94.0 | 86.0 | 90.2 | 92.6 | 83.1 | - | 113 | 83.0 | 42.6 | 110 | 114 | 55.9 | 125 |
| 4 | T0901317 + OSU-03012 | 43.2 | 103 | 85.4 | 89.7 | 102 | 105 | 19.8 | 111 | 88.5 | 105 | 89.9 | 67.6 | 75.4 | 88.0 |
| 5 | OSU-03012 + palbociclib | - | 85.7 | 64.3 | 79.1 | 92.8 | 70.2 | 9.7 | 63.6 | 95.0 | 81.2 | 99.3 | 82.8 | 74.9 | 145 |
| 6 | SU6656 + AS-252424 | 109 | 97.3 | 94.6 | 95.3 | 98.2 | 101 | 87.8 | 85.7 | 98.6 | 98.6 | 112 | 84.0 | 95.8 | 101 |
| 7 | SU6656 + BI-D1870 | - | 103 | 84.6 | 84.6 | 81.4 | 88.4 | 105 | 53.6 | 80.0 | - | 101 | 86.9 | 99.9 | 113 |
| 8 | OSU-03012 + selumetinib | - | 91.2 | 87.8 | 112 | 109 | 94.7 | 19.0 | 60.1 | 108 | 61.0 | 110 | 121 | 76.9 | 158 |
| 9 | OSU-03012 + BI-D1870 | 51.2 | 91.4 | 98.6 | 113 | 99.8 | 99.5 | 23.5 | 111 | 97.5 | 103 | 110 | 103 | 91.9 | 78.6 |
| 10 | bortezomib + palbociclib | - | 68.8 | 73.3 | 16.4 | 66.2 | 68.2 | 75.8 | 88.4 | 1.8 | 40.9 | 86.5 | 36.4 | 54.3 | 26.7 |
| 11 | palbociclib + SU6656 | - | 84.2 | 86.6 | 76.0 | 75.2 | 63.5 | 61.7 | 54.2 | 91.9 | 80.2 | 103 | 93.0 | 81.4 | 131 |
| 12 | nilutamide + SU6656 | - | 101 | 90.1 | 74.4 | 101 | 125 | 91.0 | 96.2 | 97.3 | 95.0 | 97.7 | 104 | 103 | 78.5 |
| 13 | palbociclib + BI-D1870 | 63.2 | 77.8 | 61.7 | 61.3 | 63.5 | 52.5 | - | 85.9 | 87.5 | 75.9 | 108 | 113 | 79.2 | 152 |
| 14 | bortezomib + BI-D1870 | 33.6 | 74.3 | 94.7 | 26.8 | 96.9 | 93.6 | - | 148 | 7.0 | 40.5 | 90.9 | 66.3 | 69.7 | 66.0 |
| 15 | SU6656 + T0901317 | 79.2 | 93.1 | 84.6 | 86.1 | 101 | 95.1 | 104 | 101 | 92.2 | 98.3 | 111 | 73.1 | 94.9 | 120 |
| 16 | bortezomib + selumetinib | - | 87.7 | 88.9 | 74.8 | 85.9 | 70.1 | 66.4 | 86.0 | 55.4 | 60.5 | 88.8 | 107 | 54.6 | 79.7 |
| 17 | everolimus + OSU-03012 | - | 78.6 | 93.5 | 71.2 | 68.0 | 58.4 | 23.8 | 68.2 | 75.8 | 85.0 | 69.2 | 96.0 | 83.7 | 111 |
| 18 | everolimus + nilutamide | - | 84.4 | 90.0 | 79.4 | 68.8 | 52.2 | 52.0 | 63.5 | 66.9 | 71.1 | 65.7 | 80.4 | 76.6 | 73.6 |
| 19 | nilutamide + T0901317 | 92.7 | 109 | 94.9 | 92.1 | 106 | 97.6 | 67.8 | 131 | 109 | 103 | 107 | 74.4 | 97.9 | 107 |
| 20 | AS-252424 + nilutamide | 90.1 | 102 | 113 | 98.6 | 92.4 | 106 | 89.4 | 94.2 | 113 | 97.1 | 112 | 107 | 99.2 | 95.4 |
| 21 | selumetinib + SU6656 | - | 93.8 | 79.8 | 85.2 | 88.8 | 82.0 | 74.4 | 81.4 | 88.7 | 59.4 | 81.3 | 117 | 63.5 | 102 |
| 22 | everolimus + SU6656 | - | 78.1 | 88.6 | 77.8 | 75.0 | 53.7 | 97.1 | 57.5 | 61.6 | - | 77.5 | 71.3 | 75.8 | 108 |
| 23 | bortezomib + nilutamide | - | 85.7 | 92.8 | 28.8 | 105 | 88.7 | 135 | 101 | 9.6 | - | 91.2 | 44.8 | 84.1 | 88.6 |
| 24 | everolimus + AS-252424 | 56.3 | 82.2 | 83.9 | 68.1 | 71.5 | 51.7 | - | 130 | 71.7 | 75.1 | 61.9 | 68.0 | 79.2 | 80.9 |
| 25 | palbociclib + selumetinib | - | 79.3 | 61.7 | 71.4 | 74.2 | 58.3 | 52.4 | 67.8 | 72.1 | 49.6 | 108 | 107 | 65.8 | 53.1 |
| 26 | selumetinib + nilutamide | - | 88.4 | 76.1 | 97.7 | 99.5 | 86.8 | 76.9 | 108 | 101 | 58.6 | 94.7 | 118 | 74.6 | 136 |
| 27 | BI-D1870 + nilutamide | 91.2 | 100 | 95.5 | 87.2 | 83.5 | 91.2 | 89.1 | 67.6 | 95.3 | 89.4 | 90.2 | 94.5 | 95.5 | 89.4 |
| 28 | selumetinib + T0901317 | - | 101 | 94.4 | 80.7 | 88.9 | 93.5 | - | 89.6 | 87.3 | 62.6 | 95.2 | 97.2 | 64.4 | 96.9 |
| 29 | everolimus + T0901317 | 45.8 | 79.6 | 73.2 | 78.6 | 69.0 | 52.6 | - | 62.5 | 63.5 | 80.0 | 66.9 | 62.9 | 68.0 | 91.1 |
| 30 | OSU-03012 + AS-252424 | 40.8 | 101 | 109 | 115 | 100 | 101 | 13.8 | 85.0 | 97.1 | 91.0 | 98.8 | 85.7 | 75.4 | 86.6 |
| 31 | bortezomib + SU6656 | - | 89.4 | 79.6 | 34.7 | 105 | 94.5 | 110 | 120 | 6.6 | 47.9 | 83.7 | 54.5 | 85.8 | 134 |
| 32 | BI-D1870 + selumetinib | - | 93.5 | 80.6 | 81.6 | 81.3 | 83.7 | - | 114 | 86.8 | 63.5 | 106 | 114 | 59.6 | 90.2 |
| 33 | OSU-03012 + bortezomib | - | 82.1 | 93.1 | 47.1 | 94.8 | 85.9 | 19.3 | 114 | 22.3 | 71.8 | 99.5 | 72.1 | 76.9 | 92.5 |

The first 3 entries again:

- nilutamide + palbociclib : IST-MEL1: 78.0; C32: 89.3; A101D: 68.8; MEL-HO: 63.6; COLO 792: 65.3; A375: 55.9; COLO 800: 88.0; G-361: 67.2; LB2518-MEL: 74.6; A2058: 92.9; COLO 829: 72.3; IPC-298: 82.2; LOX IMVI: 82.0
- palbociclib + everolimus : IST-MEL1: 72.4; C32: 95.3; A101D: 74.3; MEL-HO: 66.0; COLO 792: 45.6; A375: 29.7; COLO 800: 78.3; G-361: 55.3; LB2518-MEL: 71.8; A2058: 73.5; COLO 829: 69.8; IPC-298: 76.1; LOX IMVI: 89.8
- selumetinib + AS-252424 : IST-MEL1: 94.0; C32: 86.0; A101D: 90.2; MEL-HO: 92.6; COLO 792: 83.1; COLO 800: 113; G-361: 83.0; LB2518-MEL: 42.6; A2058: 110; COLO 829: 114; IPC-298: 55.9; LOX IMVI: 125